# Among all 390,000 compounds or so, about 610 (0.16%) were called active. Inconclusive results, whose numbers are uncertain, are shown with a selection of clear calls. Calls come from the whole dose curve; as a rule, active = well fitted inhibition curve with a large enough effect; inconclusive = small, poorly fitted or top-dose-only effect, or effect the other way, or another doubt; inactive = no such curve, though single readings can be large or run the other way. Potencies beside an inconclusive call are fits to weak or partial responses and may not hold up.
# Experiment: Nrf2 qHTS screen for inhibitors: counterscreen for cytotoxicity
# Conditions: A549 ARE-Fluc cells, CellTiter-Fluor viability, 18-24 h; activity change, negative = cytotoxicity: at 46 µM (top of the series)
# Method in brief: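 A549 ARE-Fluc cells in 5% FBS OPTI-MEM, 5000 cells/well, rested 2 h then exposed to compounds in concentration-response for 18-24 h at 37 °C. Viability by CellTiter-Fluor fluorescence (Ex 405/Em 525) after 30 min; luciferase luminescence (BugLite, 15 min, RT) read afterwards.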
# % is set by controls: 0 for no effect and ±100 for the full control effect; potency is the fitted concentration of half-maximal effect.
Structure (SMILES),Potency,"activity change, negative = cytotoxicity"
COc1cccc(-c2cc(C(F)(F)F)nc(N3CCCCC3)n2)c1,"inconclusive: 20.6 µM [activator, partial curve, poor fit]",–
Cn1ncc2c(O/N=C(\N)c3ccc(C(F)(F)F)cc3)ncnc21,"inconclusive: 29.1 µM [falling, single point]",–
Cc1cccc(N2CCN(C(=O)c3cc4cc(F)ccc4[nH]3)CC2)c1C,–,inactive: -4.41%
CCN1C(C(=O)c2ccccc2)=C(OC(=O)c2ccccc2OC)c2ccccc2S1(=O)=O,"inconclusive: 29.1 µM [falling, single point]",–
CCCCCc1nc2c(c(=O)c3ccccc3n2C)c(=O)n1Cc1ccc(OC)cc1,"inconclusive: 32.6 µM [falling, partial curve, poor fit]",–
Cc1ccc2nc(CSc3nc(C)nc4c3oc3ccccc34)[nH]c2c1,"inconclusive: 32.6 µM [falling, partial curve, poor fit]",–
O=C(c1ccc(S(=O)(=O)N2CCCCCC2)cc1)N1CCN(c2ccccn2)CC1,–,inactive: -4.89%
Cc1ccc(OCc2cc(C(=O)N3CCC(Oc4cccnc4)CC3)no2)cc1C,–,inactive: -1.3%
COc1cccc(C(=O)Nc2cccc(C(=O)NCC(C)C)c2)c1,–,inactive: -0.512%
COc1ccc(-c2csc(N(C)C(=O)c3ccco3)n2)cc1,–,inactive: 9.61%
CN(C)CCNC(=O)c1cccc2[nH]c(-c3ccncc3)nc12,"inconclusive: 18.4 µM [falling, partial curve, poor fit]",–
Cc1cc2cc(CN(CCN3CCOCC3)C(=O)Nc3ccccc3F)c(=O)[nH]c2cc1C,"inconclusive: 6.51 µM [falling, partial curve, poor fit]",–
COCCSc1ccccc1C(=O)Nc1ccc(Br)cc1,–,inactive: 9.21%
CCN(CC)CCNC(=O)c1ccc2c(=O)n3nc(Nc4ccccc4OC)sc3nc2c1,active: 14.6 µM,–
O=S1(=O)c2ccccc2N(Cc2cccc(Cl)c2)c2ccccc21,–,inactive: 5.13%
CCCCC(=O)Nc1ccc2c(c1)nc(CCN1CCN(c3ccccn3)CC1)n2C,–,inactive: 0.762%
O=C(C1CC1)N1CCC(C(O)(c2ccccc2)c2ccccc2)CC1,–,inactive: -6.3%
Cc1ccc(C(c2nnnn2Cc2cccs2)N2CCN(Cc3ccc4c(c3)OCO4)CC2)cc1 (configuration not stated),"inconclusive: 23.1 µM [falling, single point]",–
O=S(=O)(c1ccc(Cl)cc1)N1CCn2c1nc1ccccc12,"inconclusive: 16.4 µM [activator, partial curve, poor fit]",–
COc1cc(OC)c(NS(=O)(=O)c2ccc3c(c2)CCCN3C(C)=O)cc1Cl,–,inactive: 2.72%
CCOc1ccc(S(=O)(=O)NC(C)C(=O)NCc2ccccn2)cc1 (configuration not stated),"inconclusive: 6.51 µM [activator, partial curve, poor fit]",–
CCOc1ccc(C(=O)Nc2ccc(NC(=O)c3ccco3)c(Cl)c2)cc1Br,"inconclusive: 18.4 µM [falling, partial curve, poor fit]",–
COc1ccc(Cn2c(C(=O)O)c(CNCc3ccc(C)o3)c3ccc(C)cc32)cc1,"inconclusive: 20.6 µM [falling, partial curve]",–

# Part of the list above, set out differently:
Structure (SMILES)	Potency	activity change, negative = cytotoxicity
CCN1C(C(=O)c2ccccc2)=C(OC(=O)c2ccccc2OC)c2ccccc2S1(=O)=O	inconclusive: 29.1 µM [falling, single point]	–
CCCCCc1nc2c(c(=O)c3ccccc3n2C)c(=O)n1Cc1ccc(OC)cc1	inconclusive: 32.6 µM [falling, partial curve, poor fit]	–

# More results follow.

Structure (SMILES),Potency,"activity change, negative = cytotoxicity"
CC1(C)CC(=O)C(C(C2=C(O)CC(C)(C)CC2=O)c2ccc(Br)s2)C(=O)C1 (configuration not stated),–,inactive: -0.455%
COc1ccc2[nH]c(=O)c(CN(Cc3cccs3)S(=O)(=O)c3cccc4nsnc34)cc2c1,"inconclusive: 32.6 µM [falling, single point]",–
COc1cccc(S(=O)(=O)Nc2cccc(C(=O)N3CCCC3)c2)c1,–,inactive: 2%
CCc1ccccc1N1CC(c2nc3ccccc3n2CCCCOc2ccccc2)CC1=O (configuration not stated),"inconclusive: 29.1 µM [falling, single point]",–
COC(=O)NC(=C(Cl)Cl)S(=O)(=O)c1ccccc1,"inconclusive: 16.4 µM [falling, single point]",–
CCCn1c(=O)c(C(=O)Nc2ncccc2C)c(O)c2ccccc21,"inconclusive: 18.4 µM [falling, partial curve, poor fit]",–
CN(C)c1ccc(/C=N/NC(=O)C(=O)/C=C2\NC3(CCCC3)Cc3ccccc32)cc1,"inconclusive: 13 µM [falling, single point]",–
NC(=S)N/N=C/c1ncc(C(F)(F)F)cc1Cl,"inconclusive: 20.6 µM [falling, partial curve, poor fit]",–
CCOc1ccccc1N(C(=O)c1snc(C(N)=O)c1N)C(C(=O)NC1CCCC1)c1ccco1 (configuration not stated),"inconclusive: 18.4 µM [falling, partial curve, poor fit]",–
C=CCNc1nc(N2CCCC2)nc2ccccc12,"inconclusive: 29.1 µM [falling, partial curve, poor fit]",–
Cc1cc2oc(=O)cc(CSc3nnc(-c4cccs4)o3)c2cc1C(C)C,"inconclusive: 29.1 µM [falling, partial curve, poor fit]",–
COC(=O)N/N=C/c1cc(Cl)c(OCc2ccccc2F)c(OC)c1,–,inactive: -4.55%
Clc1ccc2nc(-c3ccncc3)cc(-c3ccccc3)c2c1,–,inactive: 0.56%
CCN(CC)C(=O)CC(c1ccc2c(c1)OCO2)c1c(OC)cc(OC)c2ccc(=O)oc12 (configuration not stated),"inconclusive: 8.2 µM [falling, partial curve, poor fit]",–
COC(C(=O)C(O)C(C)O)C1Cc2cc3cc(OC4CC(OC5CC(O)C(O)C(C)O5)C(O)C(C)O4)c(C)c(O)c3c(O)c2C(=O)C1OC1CC(OC2CC(OC3CC(O)C(OC)C(C)O3)C(O)C(C)O2)C(O)C(C)O1 (configuration not stated),"inconclusive: 0.0731 µM [falling, full curve]",–
Cc1cc(N2CCN(C(=O)Nc3ccccc3C#N)CC2)c2ccccc2n1,"inconclusive: 8.2 µM [falling, partial curve, poor fit]",–
O=C(CSc1nc2nn(-c3ccccc3)c(=O)c-2c2n1CCCCC2)Nc1ccc(F)c(F)c1,"inconclusive: 18.4 µM [falling, partial curve, poor fit]",–
Cc1cccc(OCCCC(=O)Nc2nccs2)c1,"inconclusive: 11.6 µM [falling, partial curve]",–
COc1cccc(NC(=O)COc2ccccc2)c1,"inconclusive: 0.0291 µM [activator, full curve, poor fit]",–
COc1ccc(CC(=O)OCC(=O)Nc2ccc(C(=O)Nc3ccc(OC)cc3)cc2)cc1,–,inactive: -2.76%
Cc1nonc1OCCNC(=O)C12CC3CC(CC(C3)C1)C2,–,inactive: -2.07%
CCc1ccc(-c2cn(C3CCCCC3)c(=S)[nH]2)cc1,–,inactive: -11%
Cc1ccc(SCC(=O)NC(=O)Nc2ccc3c(c2)OCCO3)cc1C,–,inactive: 4.13%

# 15 entries already listed, arranged by heavy-atom count, low to high:
Structure (SMILES),Potency,"activity change, negative = cytotoxicity"
NC(=S)N/N=C/c1ncc(C(F)(F)F)cc1Cl,"inconclusive: 20.6 µM [falling, partial curve, poor fit]",–
COC(=O)NC(=C(Cl)Cl)S(=O)(=O)c1ccccc1,"inconclusive: 16.4 µM [falling, single point]",–
Cc1cccc(OCCCC(=O)Nc2nccs2)c1,"inconclusive: 11.6 µM [falling, partial curve]",–
CCc1ccc(-c2cn(C3CCCCC3)c(=S)[nH]2)cc1,–,inactive: -11%
Cc1nonc1OCCNC(=O)C12CC3CC(CC(C3)C1)C2,–,inactive: -2.07%
Clc1ccc2nc(-c3ccncc3)cc(-c3ccccc3)c2c1,–,inactive: 0.56%
COC(=O)N/N=C/c1cc(Cl)c(OCc2ccccc2F)c(OC)c1,–,inactive: -4.55%
Cc1ccc(SCC(=O)NC(=O)Nc2ccc3c(c2)OCCO3)cc1C,–,inactive: 4.13%
Cc1cc2oc(=O)cc(CSc3nnc(-c4cccs4)o3)c2cc1C(C)C,"inconclusive: 29.1 µM [falling, partial curve, poor fit]",–
Cc1cc(N2CCN(C(=O)Nc3ccccc3C#N)CC2)c2ccccc2n1,"inconclusive: 8.2 µM [falling, partial curve, poor fit]",–
CN(C)c1ccc(/C=N/NC(=O)C(=O)/C=C2\NC3(CCCC3)Cc3ccccc32)cc1,"inconclusive: 13 µM [falling, single point]",–
COc1ccc2[nH]c(=O)c(CN(Cc3cccs3)S(=O)(=O)c3cccc4nsnc34)cc2c1,"inconclusive: 32.6 µM [falling, single point]",–
O=C(CSc1nc2nn(-c3ccccc3)c(=O)c-2c2n1CCCCC2)Nc1ccc(F)c(F)c1,"inconclusive: 18.4 µM [falling, partial curve, poor fit]",–
CCOc1ccccc1N(C(=O)c1snc(C(N)=O)c1N)C(C(=O)NC1CCCC1)c1ccco1 (configuration not stated),"inconclusive: 18.4 µM [falling, partial curve, poor fit]",–
COC(C(=O)C(O)C(C)O)C1Cc2cc3cc(OC4CC(OC5CC(O)C(O)C(C)O5)C(O)C(C)O4)c(C)c(O)c3c(O)c2C(=O)C1OC1CC(OC2CC(OC3CC(O)C(OC)C(C)O3)C(O)C(C)O2)C(O)C(C)O1 (configuration not stated),"inconclusive: 0.0731 µM [falling, full curve]",–

# The listing continues:

Structure (SMILES),Potency,"activity change, negative = cytotoxicity"
CCN(CC)CC(=O)Nc1sc2c(c1C(=O)c1ccccc1C)CCC2,"inconclusive: 23.1 µM [falling, single point]",–
CCOc1ccc(NC(=O)c2c[nH]n3c(=O)cc(C4CCN(C(=O)OC(C)(C)C)CC4)nc23)cc1,"inconclusive: 20.6 µM [falling, single point]",–
CCN(CC)CCOC(=O)c1ccc(NC(=O)Cn2ncc3c2-c2cc(C)ccc2OC3)cc1,–,inactive: -9.07%
O=C(O)c1ccc(NC2=C(n3nnc4ccccc43)C(=O)c3ccccc3C2=O)cc1,–,inactive: -20.6%
FC(F)(F)c1cc(-c2ccco2)nc(NCc2cccs2)n1,–,inactive: 4.41%
CC(=O)Nc1ccc(S(=O)(=O)Oc2cccc(N3C(=O)C4CCCCC4C3=O)c2)cc1 (configuration not stated),"inconclusive: 18.4 µM [falling, partial curve, poor fit]",–
Cc1ccc(C2C(C(=O)c3ccco3)=C(O)C(=O)N2c2nnc(C)s2)cc1 (configuration not stated),"inconclusive: 20.6 µM [falling, partial curve, poor fit]",–
CCC(C)(C)c1ccc(Oc2ccc(NC(=O)COC(=O)C3=COCCO3)cc2)cc1,"inconclusive: 23.1 µM [falling, single point]",–
C[C@@H]1CN([C@H](C)CO)C(=O)Cc2cc(NC(=O)Nc3ccccc3)ccc2O[C@@H]1CN(C)Cc1ccc2c(c1)OCO2,"inconclusive: 20.6 µM [falling, single point]",–
Cc1ccc(N=C2NC(=O)/C(=C/c3cccn3C)S2)cc1,"inconclusive: 32.6 µM [falling, partial curve, poor fit]",–
O=C(OCC(=O)N1CCN(C(=O)c2ccco2)CC1)c1cc(-c2ccc(Cl)c(Cl)c2Cl)nc2ccccc12,"inconclusive: 29.1 µM [falling, single point]",–
O=C(NCc1nc(-c2ccc(C(F)(F)F)cc2)no1)Nc1ccc(OC(F)(F)F)cc1,"inconclusive: 18.4 µM [falling, single point]",–
COc1ccc(C2c3c(nc(C)[nH]c3=O)Oc3ccc4ccccc4c32)cc1OC (configuration not stated),–,inactive: 13.8%
Cc1nnc(N=c2ssnc2Cl)o1,–,inactive: 12.9%
O=C(CN1CCC(Cc2ccccc2)CC1)NCCc1ccc(F)cc1,"inconclusive: 29.1 µM [falling, single point]",–
Cc1cc(NC(=O)c2noc3c2CCCC3)nn1Cc1ccc(Cl)cc1,–,inactive: -12.2%
Cc1ccc(C)c(S(=O)(=O)c2nnn3c2nc(NC2CCCCC2)c2sccc23)c1,"inconclusive: 29.1 µM [falling, single point]",–
Cn1c(NCc2ccccc2Cl)nc2ccccc21,–,inactive: 1.56%
O=c1c2c3nc4ccccc4nc3n(/N=C/c3ccncc3)c2ncn1-c1ccccc1,"inconclusive: 23.1 µM [activator, single point]",–
Cc1ccccc1Cn1cc(NC(=O)c2noc3c2CC(C(C)(C)C)CC3)cn1 (configuration not stated),"inconclusive: 13 µM [falling, partial curve, poor fit]",–
COc1ccc(CCC(=O)Nc2cccc(S(=O)(=O)N3CCCCCC3)c2)cc1OC,"inconclusive: 18.4 µM [falling, partial curve, poor fit]",–
